Like-named read-outs stand apart in the source and are kept apart here.
Columns and labels:
[1] = system: development of morphine tolerance in mice treated acutely with morphine; format: in vivo, mice (male Swiss-Webster)
[2] = system: development of morphine tolerance in mice treated chronically with morphine; format: in vivo, mice (male Swiss-Webster)
Procedure: Male Swiss-Webster mice (BioLab, White Bear Lake, Minn.) weighing 20 to 25 g were used. The mice were rendered tolerant to and dependent on morphine by s.c. implantation of one morphine pellet (75 mg free base)/mouse for 3 days according to the procedure of E. L. Way et al., J. Pharmacol. Exp. Ther., 167, 1 (1969). Control animals were implanted with placebo pellets. Mice were anesthetized lightly with methoxyflurane during the implantation process. […] Chem. Pathol. Pharmacol., 16, 721 (1977).
At least 30 mice (10/group) and three to four dose levels were used to determine each ED50 value.
The ED50 values of morphine and their 95% CL were determined by the parallel line assay of D. J. Finney, Statistical Methods in Biological Assay, Hafner Pub. Co., N.Y. (2d ed. 1969) with the aid of a computer program which has the capability to analyze at the same time 12 lines (dose-response curves) and 6 points (dose levels) per line with log and probit transformations and 35 repetitions per point.
Mice were implanted with a single placebo (control) or morphine pellet (75 mg free base) for 3 days. NTI (10 pmol/mouse) was administered i.c.v. 90 min before and 24 and 48 hr after the morphine pellet implantation. 5'-NTII (10 nmol/mouse) was administered 24 hr before, at the same time as and 24 and 48 hr after the morphine pellet implantation.

CN1CC[C@]23c4c5ccc(O)c4O[C@H]2[C@@H](O)C=C[C@H]3[C@H]1C5.O=S(=O)(O)O [Morphine sulfate, reference compound]
antinociceptive ED50 (95% CL) of morphine sulfate ([1]; after single s.c. dose of 100 mg/kg morphine sulfate (acute tolerance)): 14(range=11-18) mg/kg | antinociceptive ED50 (95% CL) of morphine sulfate ([1]; control animals, tail-flick): 4.0(3.0-5.2) mg/kg | ED50 (95% CL) of morphine sulfate ([2]; animals implanted with morphine pellets for 3 days): 82 (64-106) mg/kg | ED50 (95% CL) of morphine sulfate ([2]; animals receiving placebo pellets): 4.4 (3.4-5.6) mg/kg
